Median seed-adjusted z-score data for 69 sequences are collected here from PubChem BioAssay AID1347426 (Functional Genomics Laboratory (NCATS/FGL), 2020).

Screen size: about 31,000 sequences; about 1,400 (4.5%) were called active.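 Rule for the calls: active = median seed-adjusted z-score above 1 or below -1; inactive = the rest.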 The list shows a part of the results.

A short description of this assay: Novel Modifiers of Survival Motor Neuron (SMN) Protein: Gene Identification via Genome-wide siRNA Screen.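 Note: luminescence tracks full-length SMN protein made from the SMN2 reporter.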 As to conditions: HEK293T SMN2-luciferase reporter, siRNA knockdown, 72 h; actives lie on both sides. The gist of the method:
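Luciferase signal, proportional to full-length SMN made from an SMN2 cDNA reporter in stable HEK293T cells, was read 72 h after siRNA reverse transfection. Values were expressed as MAD scores after non-targeting-control normalization and log10 conversion; seed analysis flagged off-targets.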
Background: In a reporter assay the amount or activity of a reporter protein is the signal.
GGAUAUGGUUAAUAGGAGATT against SMC6: the median seed-adjusted z-score was inactive: 0.227.

In the case of GGAGGUCACUUGUGAAUCATT against GLS2, the median seed-adjusted z-score is inactive: -0.793.

For GGUUAUAGUUCCUACAGAUTT against HMGCLL1, the median seed-adjusted z-score is inactive: 0.275.

Regarding CAGCGGGUAUGGGAUCCUATT against ZNF593, the median seed-adjusted z-score was inactive: 0.215.

On to CACUGAAGCUAAUCGCUAUTT against GRM1, for which the median seed-adjusted z-score was inactive: 0.0376.

UGGACAUCGUGGAUCCAAATT against PRMT8: the median seed-adjusted z-score is inactive: 0.

For CACCGACUUGUUAAAAGAATT against MTA1, the median seed-adjusted z-score is inactive: 0.407.

For CAUUUACCAUGGUCGGAAUTT against NAAA, the median seed-adjusted z-score was inactive: -0.137.

With GGAACCAGAUUGAACGGAUTT against ECM2, the median seed-adjusted z-score is inactive: 0.179.

As to GUUCAUGGUUUGUACAGCATT against ZNF766, the median seed-adjusted z-score is inactive: -0.577.

As to GGAGUGUGAAGAUCGAGCATT against KCNN1, the median seed-adjusted z-score was inactive: -0.347.

As for CCAAAGCUCUCAUCGGAGATT against GNS, the median seed-adjusted z-score is inactive: 0.

As for UCGAGGCUUUCUACAGAAATT against RAB42, the median seed-adjusted z-score was inactive: 0.241.

Consider CACUGGGUUUUAUCUGAAUTT against APOH, for which the median seed-adjusted z-score is inactive: 0.0283.

As for GCUCUUUACUUGGGCAUUATT against CLDN2, the median seed-adjusted z-score was inactive: 0.865.

Regarding GGCUGUAACGUGAACAUCATT against DAPK1, the median seed-adjusted z-score is inactive: 0.27.

Take GCACUGAAGGCUACAACAATT against PCSK4: the median seed-adjusted z-score was inactive: 0.828.

Consider GCUUAAAUUAUAUACCUUGTT against WDFY3, for which the median seed-adjusted z-score was inactive: -0.12.

As for GAAAUUGGAUGUGAGGAUATT against MLH1, the median seed-adjusted z-score was inactive: -0.215.

On to GAGUCAAAUUUGUGAAGAATT against GLO1, for which the median seed-adjusted z-score is inactive: -0.0827.

For the sequence GGCUCUACAGUAAUGACUUTT against HTR2A, the median seed-adjusted z-score was inactive: 0.0665.

As to CCACCAUAGAGGAUUCUUATT against NRAS, the median seed-adjusted z-score is inactive: -0.581.

As to UGAGAUUACUGAAUUGAGATT against KRT10, the median seed-adjusted z-score is inactive: 0.493.

CGAUGCCUGUUAUAAAUUATT against RCAN3: the median seed-adjusted z-score is inactive: 0.544.

Consider AAAGAAGUGUUGACCAGGATT against TRIM4, for which the median seed-adjusted z-score was inactive: 0.

GUACAGUCUUUAUCCACCATT against ACSM1: the median seed-adjusted z-score was inactive: 0.658.

With GGCAUUAACUAACAUAGCATT against KPNA3, the median seed-adjusted z-score was inactive: 0.383.

Take GGAUGGCCAUUGAAGGGAUTT against ECHDC2: the median seed-adjusted z-score is inactive: -0.0827.

For the sequence AUCCAGAAGUUGUCAGUCATT against PAK6, the median seed-adjusted z-score was inactive: -0.57.

For the sequence GGACAUUUGCAUACUCCUATT against PPP1R14D, the median seed-adjusted z-score is inactive: 0.

For GGAACAGGAUGAAUAUGCATT against HADHB, the median seed-adjusted z-score was inactive: -0.188.

With CUAUACCUGUAAUUGCUAATT against DUS4L, the median seed-adjusted z-score was inactive: 0.525.

For the sequence CAUGAUAAGCUUCUGGUUATT against VHLL, the median seed-adjusted z-score is inactive: -0.0852.

Regarding GGCCUUUGUCGGUGACAUUTT against NPTXR, the median seed-adjusted z-score is inactive: 0.0818.

ACAUCGUCAUGGAGAUUGATT against FADS2: the median seed-adjusted z-score is inactive: 0.0769.

With GAACCAGACAGAGCCUGAATT against ABCC6, the median seed-adjusted z-score was inactive: 0.108.

As for GGUGGAAUAUUACCAGUCATT against MARVELD3, the median seed-adjusted z-score was inactive: -0.021.

As to GUAACAACAAGUACUCCUATT against KCTD13, the median seed-adjusted z-score is inactive: -0.273.

GCACCGCACCACCAACUUUTT against EN1: the median seed-adjusted z-score is inactive: 0.761.

As for GGUGGACAGGGUAAAAGAATT against TAF13, the median seed-adjusted z-score is inactive: -0.919.

GAACUCAUCAAAAUGCACATT against KLF15: the median seed-adjusted z-score was inactive: -0.45.

Regarding GCCCUUAGAUUCAGAUAGATT against MASTL, the median seed-adjusted z-score is inactive: -0.195.

Regarding CGUGUGGACUUGACAAGCATT against OBSCN, the median seed-adjusted z-score is inactive: -0.798.

Regarding GCAUAUAUGAUCAUUCAAUTT against RRAGD, the median seed-adjusted z-score is inactive: 0.313.

In the case of GAGUCCUCUUGUGACCUCATT against LILRB4, the median seed-adjusted z-score is inactive: -0.104.

On to CACUCACGGUGGAAUUGAATT against AOX1, for which the median seed-adjusted z-score was inactive: -0.0717.

AGUCCUUUGUUUACAAGAATT against B3GALT5: the median seed-adjusted z-score is inactive: 0.144.

Consider GGAUGGACUUUAUCCAGCATT against TM7SF4, for which the median seed-adjusted z-score is inactive: 0.0246.

On to CAAACCGAAUAGAAACUUUTT against PSMC1, for which the median seed-adjusted z-score is active: -2.23.

As for CAAUAUUGUUGGUUAUCCUTT against DMGDH, the median seed-adjusted z-score is inactive: 0.0323.

For CUACCUGAUAAAUACCCUUTT against UBE2H, the median seed-adjusted z-score was inactive: 0.

Consider ACGUAUGCAUGCUAAAUUATT against MNX1, for which the median seed-adjusted z-score was inactive: 0.734.

Take GGAACAAUCUGAGUGCGGUTT against ADORA1: the median seed-adjusted z-score was inactive: 0.022.

With GGAUAUCAUCUAGUGAUCUTT against CDKL3, the median seed-adjusted z-score was inactive: 0.243.

Take GCCCUAUUAUAUACAUCAATT against SEC24B: the median seed-adjusted z-score was inactive: -0.493.

Turning to GGACGUAACUAGUAACUUUTT against KCNN3, the median seed-adjusted z-score was inactive: -0.625.

Turning to GAUUAAAGGUCAGCACUUATT against GSTT1, the median seed-adjusted z-score is inactive: 0.0781.

GACCCAGCCGAAUACAACATT against NDUFB4: the median seed-adjusted z-score is inactive: -0.697.

CCAUAGGCAGUCCUCCUAATT against USP38: the median seed-adjusted z-score is inactive: 0.216.

For CAAUCUCAAUGGGCUUGCATT against DLX3, the median seed-adjusted z-score was inactive: 0.

CCAUUGACAAUCUAAACAATT against QPCT: the median seed-adjusted z-score was inactive: 0.933.

For UCUUCGUCCUCAACAGUGATT against GMPPB, the median seed-adjusted z-score was inactive: 0.154.

Consider GCACCGCGUUUGUCAAGUUTT against ASAP1, for which the median seed-adjusted z-score was inactive: 0.0592.

With GGAACUGAAUGUGGAUUCATT against MAP3K6, the median seed-adjusted z-score was inactive: 0.

As to GGAAUGCUAUGAUAGACGATT against GNAQ, the median seed-adjusted z-score was active: -1.23.

For UGCCUAUUGUGGAACCUGATT against ALDOC, the median seed-adjusted z-score was inactive: 0.119.

Regarding GGAUCUCGACUACAUAUAUTT against SLC5A12, the median seed-adjusted z-score was inactive: 0.279.

Regarding CGGUGAAAUUCGCCUGUGATT against INMT, the median seed-adjusted z-score was inactive: 0.863.

For GCUUUGGAAUUUCACUAUATT against RIPK5, the median seed-adjusted z-score was inactive: -0.00523.
